In experiment [1] the target is T1, p16-EGFP (prototypical p16, PNN1131, tagged with EGFP) (mouse).
T1 sequence: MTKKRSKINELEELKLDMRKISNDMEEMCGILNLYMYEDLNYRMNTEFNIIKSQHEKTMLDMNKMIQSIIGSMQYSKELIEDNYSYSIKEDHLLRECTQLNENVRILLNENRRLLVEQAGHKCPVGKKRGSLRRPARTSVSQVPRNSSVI
Nature of the experiment: co-immunoprecipitation with anti-EGFP from co-transfected COS-7 cells, blot with anti-myc (FIG. 6).

Experiment [2] shares this target. Nature of the experiment: co-immunoprecipitation with anti-EGFP from co-transfected COS-7 cells, blot with anti-myc.

No constants are given. Whether binding was seen depends on the method and setting. Binding seen in cells or lysates may run through a third protein. Some results given as binding are weak or reduced against the parent protein; the word gives no strength. Sequences can lack the tags named with a protein.

B1: p16-myc (prototypical p16, PNN1131, tagged with myc) (protein, not shown: small tags and cut ends)
chain: T1 sequence
As for B1, the binding result in experiment [1] and in experiment [2] was “binds” each time.

The values are drawn from patent publication US20050037433A1.
